Results reported in patent US8173771B2, “Humanin receptor or humanin-like polypeptide receptor” (Keio Univeristy, priority 2005, dated 2012).
Part of at least one peptide drawing is inferred or uncertain, most often the ends.

Biological target: T1, HN receptor (HNR; CNTF-R/WSX-1/gp130) on F11 cells (Mus musculus, UniProt O70394+O88507)
T1 construct: endogenous in cells; host or cells: F11 neurohybrid cells
T1 sequence (O70394 25-623): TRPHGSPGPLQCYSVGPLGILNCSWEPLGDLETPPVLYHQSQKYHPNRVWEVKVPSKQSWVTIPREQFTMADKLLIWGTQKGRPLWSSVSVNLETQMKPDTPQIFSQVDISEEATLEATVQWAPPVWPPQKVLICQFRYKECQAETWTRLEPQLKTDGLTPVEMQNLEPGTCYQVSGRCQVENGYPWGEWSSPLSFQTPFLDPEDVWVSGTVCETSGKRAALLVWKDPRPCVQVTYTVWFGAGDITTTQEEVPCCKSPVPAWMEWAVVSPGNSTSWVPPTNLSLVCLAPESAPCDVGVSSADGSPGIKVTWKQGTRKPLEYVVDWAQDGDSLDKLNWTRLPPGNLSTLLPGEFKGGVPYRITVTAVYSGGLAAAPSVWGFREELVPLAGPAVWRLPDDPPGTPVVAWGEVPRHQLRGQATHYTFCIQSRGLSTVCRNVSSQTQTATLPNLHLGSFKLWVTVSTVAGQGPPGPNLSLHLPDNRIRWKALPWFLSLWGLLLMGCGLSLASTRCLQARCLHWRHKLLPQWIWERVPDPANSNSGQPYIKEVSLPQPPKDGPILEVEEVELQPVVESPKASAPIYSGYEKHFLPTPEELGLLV
T1 sequence (O88507 23-342): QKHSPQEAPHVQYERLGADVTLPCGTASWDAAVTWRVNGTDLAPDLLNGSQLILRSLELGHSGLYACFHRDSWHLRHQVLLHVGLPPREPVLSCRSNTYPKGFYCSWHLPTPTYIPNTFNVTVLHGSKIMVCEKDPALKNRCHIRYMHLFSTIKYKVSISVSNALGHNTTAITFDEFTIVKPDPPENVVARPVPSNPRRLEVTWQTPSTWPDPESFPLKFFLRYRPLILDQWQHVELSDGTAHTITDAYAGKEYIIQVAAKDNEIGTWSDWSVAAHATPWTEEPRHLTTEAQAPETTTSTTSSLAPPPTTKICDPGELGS
T1 sequence (Q00560 23-917 partner): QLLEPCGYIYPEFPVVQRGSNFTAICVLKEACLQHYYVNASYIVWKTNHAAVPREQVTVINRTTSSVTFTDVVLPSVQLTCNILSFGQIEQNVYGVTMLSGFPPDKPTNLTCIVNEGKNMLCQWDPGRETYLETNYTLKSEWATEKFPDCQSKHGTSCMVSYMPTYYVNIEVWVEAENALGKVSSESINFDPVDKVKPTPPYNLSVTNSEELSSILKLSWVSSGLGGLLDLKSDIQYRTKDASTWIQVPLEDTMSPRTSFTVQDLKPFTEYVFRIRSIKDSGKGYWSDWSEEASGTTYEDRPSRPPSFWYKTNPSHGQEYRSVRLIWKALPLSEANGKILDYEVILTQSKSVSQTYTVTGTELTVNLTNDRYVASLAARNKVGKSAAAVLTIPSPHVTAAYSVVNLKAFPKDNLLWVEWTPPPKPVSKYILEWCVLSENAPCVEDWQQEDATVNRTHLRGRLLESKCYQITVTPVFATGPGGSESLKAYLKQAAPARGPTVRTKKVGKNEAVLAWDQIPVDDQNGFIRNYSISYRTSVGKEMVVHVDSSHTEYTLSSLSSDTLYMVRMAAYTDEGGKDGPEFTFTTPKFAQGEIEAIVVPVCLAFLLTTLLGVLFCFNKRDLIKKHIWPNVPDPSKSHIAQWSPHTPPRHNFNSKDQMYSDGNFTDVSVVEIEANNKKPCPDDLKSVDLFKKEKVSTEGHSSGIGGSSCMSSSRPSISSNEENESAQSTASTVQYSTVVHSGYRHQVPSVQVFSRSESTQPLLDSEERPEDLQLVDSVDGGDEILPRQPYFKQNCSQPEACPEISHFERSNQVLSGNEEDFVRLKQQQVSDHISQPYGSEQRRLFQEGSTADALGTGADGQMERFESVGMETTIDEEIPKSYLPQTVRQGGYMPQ
Assay: Immunofluorescence-based binding assay (2): biotin-HN / biotin-HNG binding to F11 cells
Procedure: A) F11 cells were seeded on 96-well plates coated with poly-L-lysine (7×10^3 cells/well). An indicated amount of biotin-HN or biotin-HNG was added to the cells with or without 10 μM of unlabelled HNG or HNA, followed by a binding assay based on immunofluorescence reaction (2) (left panels). On the other hand, F11 cells were transfected with 0.5 μg of pcDNA3.1/GS-human CNTF-R, pEF1/MycHis-human WSX-1, and 1.0 μg of pCAG-human gp130. At 24 hrs after the transfection, the cells were re-seeded on 96-well plates coated with poly-L-lysine (7×10^3 cells/well). After 36 hrs the re-seeding, an indicated amount of biotin-HN or biotin-HNG was added to the cells with or without 10 μM of unlabeled HNG or HNA, followed by a binding assay based on immunofluorescence reaction (2) (right panels).
B) F11 cells were transfected with 0.5 μg of pRNA-U1.6/Shuttle vector, pRNA-U6.1/Shuttle-WSX-1 siRNA, pRNA-U6.1/Shuttle-CNTF-R siRNA, both pRNA-U6.1/Shuttle-WSX-1 siRNA and pRNA-U6.1/Shuttle-CNTF-R siRNA (0.5 μg each), pRNA-U6.1/Shuttle-FPR2 siRNA or pRNA-U6.1/Shuttle-LIFR siRNA. The total amount of vectors was adjusted to be 1.0 μg by including a backbone vector. At 24 hrs after the transfection, an indicated amount of biotin-HNG was added with or without unlabeled HNG, followed by a binding assay based on immunofluorescence reaction (2) at 72 hrs after the transfection.
E) F11 cells on 6-well plate (7×10^4 cells/well) were transfected with 1.0 μg of pRNA-U6.1/Shuttle vector, pRNA-U6.1/Shuttle-Bax siRNA, or both pRNA-U6.1/Shuttle-WSX-1 siRNA and pRNA-U6.1/Shuttle-CNTF-R siRNA (0.5 μg each). At 72 hrs after the transfection, the cells were added with an indicated amount of biotin-HN with or without unlabeled HN or HNA (100 μM) and subjected to an HN-binding assay based on immunofluorescence.
F11 cells (7×10^4/well in 6-well plates) were replated into 96-well plates (7×10^3 cells/well) at 24 hrs after transfection with indicated amounts of the plasmids encoding mycHis-WSX or V5-CNTF-R, and with PCAG-human gp130 if required. At 36 hrs after transfection, the cells were added with biotin-labeled HN or HNG of indicated concentrations in the presence or the absence of HNG (S14G-HN) or HNA (C8A-HN) of indicated concentrations (Hashimoto et al., 2001 a). After 6 hrs incubation, they were fixed with 4% paraformaldehyde in PBS for 30 min. After washing with PBS, cells were stained with FITC-conjugated avidin (Molecularprobe, Eugene, Oreg., USA). Immunofluorescence intensity was measured (excitation=485 nm, emission=535 nm) with a spectrofluorometer (Wallac1420 ARVOsx Multi Label Counter). Immunohistochemical analysis was done with a laser-scanning, confocal microscope LSM (Carl Zeiss, Germany).

## CC[C@H](C)[C@H](NC(=O)[C@H](CCC(=O)O)NC(=O)[C@H](CO)NC(=O)[C@@H](NC(=O)[C@H](CC(C)C)NC(=O)[C@H](CC(C)C)NC(=O)[C@H](CC(C)C)NC(=O)[C@H](CC(C)C)NC(=O)[C@H](CS)NC(=O)[C@H](CO)NC(=O)[C@H](Cc1ccccc1)NC(=O)CNC(=O)[C@H](CCCNC(=N)N)NC(=O)[C@@H]1CCCN1C(=O)[C@H](C)NC(=O)[C@@H](N)CCSC)[C@@H](C)O)C(=O)N[C@@H](CC(=O)O)C(=O)N[C@@H](CC(C)C)C(=O)N1CCC[C@H]1C(=O)N[C@H](C(=O)N[C@@H](CCCCN)C(=O)N[C@@H](CCCNC(=N)N)C(=O)N[C@@H](CCCNC(=N)N)C(=O)N[C@@H](C)C(=O)O)C(C)C [HN, Humanin]
biotin-HN, concentration-dependent binding
  concentration of saturation of binding: 10 µM
Expression of FPR2 or LIFR decreased by siRNA
  binding to F11 cells: not be affected
Inhibition of expression of endogenous Bax by siRNA-Bax
  binding activity of HN to F11 cells: did not suppress
Specificity of binding
  inhibition of binding by over-addition of unlabeled peptide: almost completely inhibit
